These results are taken from doi:10.1101/2021.10.08.463692.

The target in the assay is SspH2 LRR domain (Salmonella enterica serovar Typhimurium). Description: co-IP.

No constants are given. Whether binding was seen depends on the method and setting. Binding seen in cells or lysates may run through a third protein. Binding calls can cover weak binding; strength is not graded here. Where a sequence is shown, tags or fusion partners need not be part of it.

B1: NOD1, wild type, FLAG-tagged (pcDNA3-NOD1-Flag) (receptor, UniProt Q9Y239 1-953)
chain: MEEQGHSEMEIIPSESHPHIQLLKSNRELLVTHIRNTQCLVDNLLKNDYFSAEDAEIVCACPTQPDKVRKILDLVQSKGEEVSEFFLYLLQQLADAYVDLRPWLLEIGFSPSLLTQSKVVVNTDPVSRYTQQLRHHLGRDSKFVLCYAQKEELLLEEIYMDTIMELVGFSNESLGSLNSLACLLDHTTGILNEQGETIFILGDAGVGKSMLLQRLQSLWATGRLDAGVKFFFHFRCRMFSCFKESDRLCLQDLLFKHYCYPERDPEEVFAFLLRFPHVALFTFDGLDELHSDLDLSRVPDSSCPWEPAHPLVLLANLLSGKLLKGASKLLTARTGIEVPRQFLRKKVLLRGFSPSHLRAYARRMFPERALQDRLLSQLEANPNLCSLCSVPLFCWIIFRCFQHFRAAFEGSPQLPDCTMTLTDVFLLVTEVHLNRMQPSSLVQRNTRSPVETLHAGRDTLCSLGQVAHRGMEKSLFVFTQEEVQASGLQERDMQLGFLRALPELGPGGDQQSYEFFHLTLQAFFTAFFLVLDDRVGTQELLRFFQEWMPPAGAATTSCYPPFLPFQCLQGSGPAREDLFKNKDHFQFTNLFLCGLLSKAKQKLLRHLVPAAALRRKRKALWAHLFSSLRGYLKSLPRVQVESFNQVQAMPTFIWMLRCIYETQSQKVGQLAARGICANYLKLTYCNACSADCSALSFVLHHFPKRLALDLDNNNLNDYGVRELQPCFSRLTVLRLSVNQITDGGVKVLSEELTKYKIVTYLGLYNNQITDVGARYVTKILDECKGLTHLKLGKNKITSEGGKYLALAVKNSKSISEVGMWGNQVGDEGAKAFAEALRNHPSLTTLSLASNGISTEGGKSLARALQQNTSLEILWLTQNELNDEVAESLAEMLKVNQTLKHLWLIQNQITAKGTAQLADALQSNTGITEICLNGNLIKPEEAKVYEDEKRIICF
For the molecule B1, the binding result is reported as “binds”.
